Reference: PubChem BioAssay AID1259282 (Sanger Institute, 2017)
Assay: 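siRNA screen across the kinome seeking drug combinations lethal to colorectal cancer cells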 (primary screen). System: DIFI human colorectal cancer cell line. Knock-down reagent: siRNA pool against human genes. Treatment: anchor drug at a mild dose (BYL719 1 µM, cetuximab 5 µg/ml, trametinib 10 nM) or DMSO vehicle; exposure time not given. Measurement: 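Robust z-score and replicate-mean viability versus non-targeting pool without drug, plus a synergy score for each low-dose anchor drug (BYL719, cetuximab, trametinib)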. Scale: robust z-score, knock-down alone: higher = more viable cells than typical knock-down; viability, knock-down alone: higher = more viable cells. Units: viability, knock-down alone in fraction of control. Rule for the call: 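a knock-down is called essential if its DMSO robust z-score is under -3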. Meaning of the calls: active = essential (knock-down alone, z below -3); inactive = not essential.
The whole screen tested 794 reagents; below is an unselected part. In the full data, 11 (1.4%) got an active call. 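Calls flag knock-downs that lower viability without drug; drug synergy appears only in the synergy scores; exposure time not stated.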 Viability is capped at 1. Not all columns of the deposit are shown. Not stated in the record: the amount of reagent, the time to read-out.

SF3B1 (splicing factor 3b subunit 1) — robust z-score, knock-down alone: -1.57; viability, knock-down alone: 0.668; Outcome: inactive
MAPK9 (mitogen-activated protein kinase 9) — robust z-score, knock-down alone: 0.715; viability, knock-down alone: 1; Outcome: inactive
BMAL1 (basic helix-loop-helix ARNT like 1) — robust z-score, knock-down alone: -2.29; viability, knock-down alone: 0.563; Outcome: inactive
CDK12 (cyclin dependent kinase 12) — robust z-score, knock-down alone: 0.715; viability, knock-down alone: 1; Outcome: inactive
LCK (LCK proto-oncogene, Src family tyrosine kinase) — robust z-score, knock-down alone: 0.715; viability, knock-down alone: 1; Outcome: inactive
PIM3 (Pim-3 proto-oncogene, serine/threonine kinase) — robust z-score, knock-down alone: 0.686; viability, knock-down alone: 0.996; Outcome: inactive
PIP5K1A (phosphatidylinositol-4-phosphate 5-kinase type 1 alpha) — robust z-score, knock-down alone: -0.3; viability, knock-down alone: 0.853; Outcome: inactive
UHMK1 (U2AF homology motif kinase 1) — robust z-score, knock-down alone: -1.04; viability, knock-down alone: 0.745; Outcome: inactive
CDKL3 (cyclin dependent kinase like 3) — robust z-score, knock-down alone: 0.715; viability, knock-down alone: 1; Outcome: inactive
MAPK12 (mitogen-activated protein kinase 12) — robust z-score, knock-down alone: 0.715; viability, knock-down alone: 1; Outcome: inactive
HK3 (hexokinase 3) — robust z-score, knock-down alone: 0.715; viability, knock-down alone: 1; Outcome: inactive
AMHR2 (anti-Mullerian hormone receptor type 2) — robust z-score, knock-down alone: -0.632; viability, knock-down alone: 0.804; Outcome: inactive
RUNX1 (RUNX family transcription factor 1) — robust z-score, knock-down alone: -2.14; viability, knock-down alone: 0.586; Outcome: inactive
NR4A2 (nuclear receptor subfamily 4 group A member 2) — robust z-score, knock-down alone: -1.99; viability, knock-down alone: 0.607; Outcome: inactive
CLSPN (claspin) — robust z-score, knock-down alone: -1.95; viability, knock-down alone: 0.613; Outcome: inactive
PRKAR1B (protein kinase cAMP-dependent type I regulatory subunit beta) — robust z-score, knock-down alone: 0.385; viability, knock-down alone: 0.952; Outcome: inactive
MSR1 (macrophage scavenger receptor 1) — robust z-score, knock-down alone: -0.602; viability, knock-down alone: 0.809; Outcome: inactive
DCLK3 (doublecortin like kinase 3) — robust z-score, knock-down alone: 0.715; viability, knock-down alone: 1; Outcome: inactive
PRPS1 (phosphoribosyl pyrophosphate synthetase 1) — robust z-score, knock-down alone: -1.04; viability, knock-down alone: 0.746; Outcome: inactive
MED12 (mediator complex subunit 12) — robust z-score, knock-down alone: 0.637; viability, knock-down alone: 0.989; Outcome: inactive
MAP4K4 (mitogen-activated protein kinase kinase kinase kinase 4) — robust z-score, knock-down alone: 0.715; viability, knock-down alone: 1; Outcome: inactive
FCSK (fucose kinase) — robust z-score, knock-down alone: -2.17; viability, knock-down alone: 0.581; Outcome: inactive
EPHB2 (EPH receptor B2) — robust z-score, knock-down alone: -0.899; viability, knock-down alone: 0.766; Outcome: inactive
ADPGK (ADP dependent glucokinase) — robust z-score, knock-down alone: -0.52; viability, knock-down alone: 0.821; Outcome: inactive
IPPK (inositol-pentakisphosphate 2-kinase) — robust z-score, knock-down alone: -1.92; viability, knock-down alone: 0.617; Outcome: inactive
PIK3CG — robust z-score, knock-down alone: 0.675; viability, knock-down alone: 0.994; Outcome: inactive
LRRK2 (leucine rich repeat kinase 2) — robust z-score, knock-down alone: -0.671; viability, knock-down alone: 0.799; Outcome: inactive
HIPK3 (homeodomain interacting protein kinase 3) — robust z-score, knock-down alone: 0.504; viability, knock-down alone: 0.969; Outcome: inactive

Records above whose target name starts with H or h (2):
HK3 (hexokinase 3) — robust z-score, knock-down alone: 0.715; viability, knock-down alone: 1; Outcome: inactive
HIPK3 (homeodomain interacting protein kinase 3) — robust z-score, knock-down alone: 0.504; viability, knock-down alone: 0.969; Outcome: inactive
